The list shows a part of the results. The calls rarely recur for the same compound in another form.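 Kinases, fused to nanoluciferase, were expressed in K562 cells; luminescence was measured every 4 h from 2 to 18 h as percent of control (DMSO = 100%, positive control = 0%). A time point is decreased if signal falls significantly (2 sigma). Hits were called by the authors by a rule that is not shown; the count of time points alone does not decide it.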
How the values were obtained:
Test in all cases: number of time points (of 5) at which kinase-Nluc abundance scored as decreased, DMSO-normalised (count); higher = more persistent destabilization
Details in all cases: K562; 2-18 h
EGFR_L861Q = EGFR_L861Q (UniProt P00533)
EGFR_T790M = EGFR_T790M (UniProt P00533)
EPHA2 = EPHA2 (UniProt P29317)
ERBB3 = ERBB3 (UniProt P21860)
[1] = biological target: ERBB4_R711C (clone: ERBB4_mut) (UniProt Q15303)
ERN1 = ERN1 (UniProt O75460)
FGFR1 = FGFR1 (UniProt P11362)
FGFR2 = FGFR2 (UniProt P21802)
FGFR3 = FGFR3 (UniProt P22607)
FGR = FGR (UniProt P09769)
FLT3 = FLT3 (UniProt P36888)
FYN = FYN (UniProt P06241)
GSK3A = GSK3A (UniProt P49840)
HER2 = HER2 (UniProt P04626)
INSRR = INSRR (UniProt P14616)
IRAK3 = IRAK3 (UniProt Q9Y616)
JAK1 = JAK1 (UniProt P23458)
LCK = LCK (UniProt P06239)
LIMK1 = LIMK1 (UniProt P53667)
LIMK2 = LIMK2 (UniProt P53671)

Amino acid sequences for entries named in this document (tags omitted). A change or cut given only in a name is not applied to a line headed by its entry.
UniProt Q15303, whole entry R711C: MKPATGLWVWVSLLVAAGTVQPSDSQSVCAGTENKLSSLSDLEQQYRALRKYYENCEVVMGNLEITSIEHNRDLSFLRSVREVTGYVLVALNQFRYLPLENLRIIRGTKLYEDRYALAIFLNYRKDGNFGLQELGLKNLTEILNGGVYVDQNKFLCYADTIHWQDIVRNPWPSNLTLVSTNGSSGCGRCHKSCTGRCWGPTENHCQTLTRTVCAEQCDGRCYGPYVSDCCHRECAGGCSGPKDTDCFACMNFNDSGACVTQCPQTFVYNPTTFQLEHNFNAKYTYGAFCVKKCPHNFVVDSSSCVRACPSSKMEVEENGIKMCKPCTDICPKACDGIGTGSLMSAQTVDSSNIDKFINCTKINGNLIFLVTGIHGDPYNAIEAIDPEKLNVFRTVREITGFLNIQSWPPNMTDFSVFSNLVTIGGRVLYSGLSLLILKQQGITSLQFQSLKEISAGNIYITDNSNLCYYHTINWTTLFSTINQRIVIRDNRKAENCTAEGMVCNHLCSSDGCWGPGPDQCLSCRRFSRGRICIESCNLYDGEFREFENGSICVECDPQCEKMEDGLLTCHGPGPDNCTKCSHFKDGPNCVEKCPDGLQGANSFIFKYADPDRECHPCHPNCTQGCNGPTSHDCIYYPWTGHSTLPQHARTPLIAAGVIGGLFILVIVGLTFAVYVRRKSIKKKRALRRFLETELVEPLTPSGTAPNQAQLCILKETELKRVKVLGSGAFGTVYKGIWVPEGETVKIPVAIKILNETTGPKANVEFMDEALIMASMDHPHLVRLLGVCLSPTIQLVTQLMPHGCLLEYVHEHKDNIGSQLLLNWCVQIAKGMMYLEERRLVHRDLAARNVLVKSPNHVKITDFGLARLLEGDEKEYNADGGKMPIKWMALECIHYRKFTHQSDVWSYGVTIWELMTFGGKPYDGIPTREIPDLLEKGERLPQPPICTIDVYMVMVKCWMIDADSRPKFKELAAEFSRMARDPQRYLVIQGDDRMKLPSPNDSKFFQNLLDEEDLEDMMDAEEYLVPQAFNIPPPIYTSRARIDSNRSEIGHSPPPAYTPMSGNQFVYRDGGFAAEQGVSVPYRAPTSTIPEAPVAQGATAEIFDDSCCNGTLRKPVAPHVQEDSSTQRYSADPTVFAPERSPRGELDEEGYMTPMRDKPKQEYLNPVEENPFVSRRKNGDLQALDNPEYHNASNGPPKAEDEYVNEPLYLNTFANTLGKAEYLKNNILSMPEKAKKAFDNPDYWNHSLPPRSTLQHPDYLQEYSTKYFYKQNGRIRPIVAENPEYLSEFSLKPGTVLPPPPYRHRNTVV
UniProt O75460: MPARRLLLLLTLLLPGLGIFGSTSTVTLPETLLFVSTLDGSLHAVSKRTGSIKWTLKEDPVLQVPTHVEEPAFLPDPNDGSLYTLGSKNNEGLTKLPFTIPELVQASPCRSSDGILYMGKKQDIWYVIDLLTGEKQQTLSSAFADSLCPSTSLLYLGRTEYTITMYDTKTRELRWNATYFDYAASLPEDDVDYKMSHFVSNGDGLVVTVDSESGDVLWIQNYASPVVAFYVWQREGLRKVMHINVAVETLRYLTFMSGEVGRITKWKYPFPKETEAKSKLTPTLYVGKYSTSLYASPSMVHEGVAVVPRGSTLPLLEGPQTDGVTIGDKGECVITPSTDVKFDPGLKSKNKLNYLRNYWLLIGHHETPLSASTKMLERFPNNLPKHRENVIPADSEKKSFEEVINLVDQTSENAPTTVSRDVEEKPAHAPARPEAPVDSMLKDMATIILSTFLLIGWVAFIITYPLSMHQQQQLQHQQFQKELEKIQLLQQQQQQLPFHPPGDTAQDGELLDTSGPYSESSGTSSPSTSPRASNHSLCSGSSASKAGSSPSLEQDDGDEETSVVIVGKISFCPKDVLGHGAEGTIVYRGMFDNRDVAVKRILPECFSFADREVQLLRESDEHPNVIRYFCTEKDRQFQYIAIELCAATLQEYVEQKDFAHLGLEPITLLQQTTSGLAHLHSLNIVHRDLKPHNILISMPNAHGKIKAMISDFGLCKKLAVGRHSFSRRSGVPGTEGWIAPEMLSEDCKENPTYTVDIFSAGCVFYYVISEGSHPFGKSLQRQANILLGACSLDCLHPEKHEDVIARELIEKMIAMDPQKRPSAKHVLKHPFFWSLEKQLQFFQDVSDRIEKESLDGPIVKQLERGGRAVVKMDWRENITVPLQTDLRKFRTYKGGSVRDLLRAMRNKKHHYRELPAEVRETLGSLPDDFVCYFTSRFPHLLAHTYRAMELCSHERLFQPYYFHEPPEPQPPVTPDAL
UniProt P21802, whole entry, looked up: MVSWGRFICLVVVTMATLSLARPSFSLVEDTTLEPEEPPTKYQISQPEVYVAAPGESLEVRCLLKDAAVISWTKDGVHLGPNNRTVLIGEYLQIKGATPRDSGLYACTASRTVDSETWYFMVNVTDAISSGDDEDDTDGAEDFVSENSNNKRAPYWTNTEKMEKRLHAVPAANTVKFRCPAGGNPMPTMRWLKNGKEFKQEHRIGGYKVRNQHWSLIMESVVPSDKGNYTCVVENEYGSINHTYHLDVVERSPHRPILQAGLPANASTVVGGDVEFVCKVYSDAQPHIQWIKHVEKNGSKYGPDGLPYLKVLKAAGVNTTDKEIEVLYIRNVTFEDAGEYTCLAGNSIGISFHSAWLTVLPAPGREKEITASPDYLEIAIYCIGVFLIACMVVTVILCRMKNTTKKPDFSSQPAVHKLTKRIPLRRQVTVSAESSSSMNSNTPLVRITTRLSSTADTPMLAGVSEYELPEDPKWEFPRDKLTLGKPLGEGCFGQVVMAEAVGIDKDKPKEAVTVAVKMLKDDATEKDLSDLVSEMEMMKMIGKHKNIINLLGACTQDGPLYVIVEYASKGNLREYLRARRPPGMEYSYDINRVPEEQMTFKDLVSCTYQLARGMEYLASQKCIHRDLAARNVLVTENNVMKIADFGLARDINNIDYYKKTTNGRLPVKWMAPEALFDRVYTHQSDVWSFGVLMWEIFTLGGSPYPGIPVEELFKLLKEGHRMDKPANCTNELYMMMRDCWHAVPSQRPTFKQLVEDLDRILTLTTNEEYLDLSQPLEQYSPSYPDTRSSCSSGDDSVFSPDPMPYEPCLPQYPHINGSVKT
UniProt P14616: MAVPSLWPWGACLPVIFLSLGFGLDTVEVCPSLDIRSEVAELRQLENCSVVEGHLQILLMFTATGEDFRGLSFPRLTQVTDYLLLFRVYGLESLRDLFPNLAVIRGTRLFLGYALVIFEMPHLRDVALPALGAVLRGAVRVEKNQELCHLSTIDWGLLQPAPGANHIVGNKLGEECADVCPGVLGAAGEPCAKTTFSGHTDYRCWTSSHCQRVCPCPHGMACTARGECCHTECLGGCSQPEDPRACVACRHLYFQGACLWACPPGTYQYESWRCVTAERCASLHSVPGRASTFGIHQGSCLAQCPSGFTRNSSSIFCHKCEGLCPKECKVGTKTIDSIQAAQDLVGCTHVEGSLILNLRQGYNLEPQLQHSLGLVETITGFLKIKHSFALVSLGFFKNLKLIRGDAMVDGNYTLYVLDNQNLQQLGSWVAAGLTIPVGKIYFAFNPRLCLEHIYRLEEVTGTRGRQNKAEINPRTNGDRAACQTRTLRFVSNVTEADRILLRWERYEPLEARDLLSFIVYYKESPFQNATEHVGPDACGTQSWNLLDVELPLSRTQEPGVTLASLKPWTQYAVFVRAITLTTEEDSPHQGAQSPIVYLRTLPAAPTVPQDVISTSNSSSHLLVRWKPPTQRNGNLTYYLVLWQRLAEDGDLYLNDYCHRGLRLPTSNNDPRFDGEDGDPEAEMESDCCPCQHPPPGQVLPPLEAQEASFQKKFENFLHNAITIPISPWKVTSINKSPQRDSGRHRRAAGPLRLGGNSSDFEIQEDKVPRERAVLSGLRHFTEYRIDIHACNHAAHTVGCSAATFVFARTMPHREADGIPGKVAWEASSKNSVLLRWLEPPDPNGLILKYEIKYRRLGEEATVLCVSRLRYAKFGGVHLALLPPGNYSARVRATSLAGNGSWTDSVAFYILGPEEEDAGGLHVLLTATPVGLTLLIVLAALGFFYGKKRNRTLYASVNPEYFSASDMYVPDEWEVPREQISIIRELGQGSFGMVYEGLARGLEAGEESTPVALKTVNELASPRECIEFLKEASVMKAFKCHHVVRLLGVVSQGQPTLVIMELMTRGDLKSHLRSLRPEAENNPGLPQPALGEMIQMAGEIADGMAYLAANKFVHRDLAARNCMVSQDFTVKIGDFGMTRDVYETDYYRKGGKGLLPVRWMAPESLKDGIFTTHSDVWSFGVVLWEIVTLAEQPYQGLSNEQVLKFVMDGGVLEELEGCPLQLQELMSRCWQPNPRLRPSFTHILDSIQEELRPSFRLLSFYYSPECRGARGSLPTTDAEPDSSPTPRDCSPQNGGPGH
UniProt Q9Y616: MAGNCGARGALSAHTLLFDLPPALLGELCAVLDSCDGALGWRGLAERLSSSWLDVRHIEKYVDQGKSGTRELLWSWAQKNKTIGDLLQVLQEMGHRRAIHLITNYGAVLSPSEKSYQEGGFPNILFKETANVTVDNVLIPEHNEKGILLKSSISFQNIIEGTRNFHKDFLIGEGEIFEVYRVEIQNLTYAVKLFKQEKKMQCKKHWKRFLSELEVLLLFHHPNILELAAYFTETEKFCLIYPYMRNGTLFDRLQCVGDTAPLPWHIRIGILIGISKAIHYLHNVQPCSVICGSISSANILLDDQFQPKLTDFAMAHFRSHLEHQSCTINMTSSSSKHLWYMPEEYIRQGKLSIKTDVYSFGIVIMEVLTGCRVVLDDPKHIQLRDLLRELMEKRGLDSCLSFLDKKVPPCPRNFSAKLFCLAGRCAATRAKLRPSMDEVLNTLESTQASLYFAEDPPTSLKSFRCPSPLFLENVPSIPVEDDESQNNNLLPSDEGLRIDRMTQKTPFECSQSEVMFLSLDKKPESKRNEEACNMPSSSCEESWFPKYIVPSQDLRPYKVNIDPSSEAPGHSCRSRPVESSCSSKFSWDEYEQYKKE
UniProt P23458: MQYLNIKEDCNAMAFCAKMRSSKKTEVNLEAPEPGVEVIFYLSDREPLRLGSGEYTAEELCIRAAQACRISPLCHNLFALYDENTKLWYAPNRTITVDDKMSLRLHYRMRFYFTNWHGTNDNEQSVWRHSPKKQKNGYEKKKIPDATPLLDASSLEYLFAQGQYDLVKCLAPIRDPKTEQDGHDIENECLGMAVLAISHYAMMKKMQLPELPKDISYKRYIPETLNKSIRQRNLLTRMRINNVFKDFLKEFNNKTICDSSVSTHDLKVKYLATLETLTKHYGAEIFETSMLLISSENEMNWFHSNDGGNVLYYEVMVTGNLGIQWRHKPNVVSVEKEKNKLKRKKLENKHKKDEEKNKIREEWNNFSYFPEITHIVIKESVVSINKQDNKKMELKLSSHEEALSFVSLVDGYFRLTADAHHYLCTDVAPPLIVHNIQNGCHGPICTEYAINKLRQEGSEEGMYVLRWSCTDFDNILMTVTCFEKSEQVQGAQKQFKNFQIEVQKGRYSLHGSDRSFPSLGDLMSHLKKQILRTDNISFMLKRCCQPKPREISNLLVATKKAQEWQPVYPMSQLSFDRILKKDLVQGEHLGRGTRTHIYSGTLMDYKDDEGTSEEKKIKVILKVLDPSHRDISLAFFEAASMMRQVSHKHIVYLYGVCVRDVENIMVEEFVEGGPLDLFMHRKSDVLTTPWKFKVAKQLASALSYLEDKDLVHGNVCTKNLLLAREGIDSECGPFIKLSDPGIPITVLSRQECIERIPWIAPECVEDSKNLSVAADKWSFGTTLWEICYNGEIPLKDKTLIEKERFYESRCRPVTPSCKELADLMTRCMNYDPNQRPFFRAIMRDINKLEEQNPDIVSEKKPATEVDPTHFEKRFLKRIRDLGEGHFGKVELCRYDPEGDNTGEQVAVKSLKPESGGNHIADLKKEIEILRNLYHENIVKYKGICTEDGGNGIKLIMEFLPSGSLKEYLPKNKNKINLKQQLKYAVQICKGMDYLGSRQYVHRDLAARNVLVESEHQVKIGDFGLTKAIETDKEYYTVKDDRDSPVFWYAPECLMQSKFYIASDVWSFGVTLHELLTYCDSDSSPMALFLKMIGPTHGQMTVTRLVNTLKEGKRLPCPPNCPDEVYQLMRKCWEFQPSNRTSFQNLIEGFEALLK

| SMILES | number of time points (EGFR_L861Q) | number of time points (EGFR_T790M) | number of time points (EPHA2) | number of time points (ERBB3) | number of time points [1] | number of time points (ERN1) | number of time points (FGFR1) | number of time points (FGFR2) | number of time points (FGFR3) | number of time points (FGR) | number of time points (FLT3) | number of time points (FYN) | number of time points (GSK3A) | number of time points (HER2) | number of time points (INSRR) | number of time points (IRAK3) | number of time points (JAK1) | number of time points (LCK) | number of time points (LIMK1) | number of time points (LIMK2) |
| --- | --- | --- | --- | --- | --- | --- | --- | --- | --- | --- | --- | --- | --- | --- | --- | --- | --- | --- | --- | --- |
| C=CC(=O)Nc1ccc(CN(C(=O)Nc2c(Cl)c(OC)cc(OC)c2Cl)c2cc(Nc3ccc(N4CCN(C)CC4)cc3)ncn2)cc1 (10 µM) | 0 | 0 | 0 | 0 | 0 | 0 | 0 | 0 | 0 | 0 | 0 | 0 | 0 | 0 | 0 | 0 | 0 | 0 | 0 | 0 |
| O=C(NC(NC(=S)Nc1ccc(F)c([N+](=O)[O-])c1)C(Cl)(Cl)Cl)C(c1ccccc1)c1ccccc1 (stereo not given) (10 µM) | 0 | 0 | 0 | 0 | 0 | 0 | 0 | 0 | 0 | 0 | 0 | 0 | 0 | 0 | 0 | 0 | 0 | 0 | 0 | 0 |
| COc1cc([N+](=O)[O-])ccc1S(=O)(=O)N1C[C@@H](CN2CCN(c3ccccn3)CC2)[C@H](c2cccc(F)c2)C1 (relative stereo) (10 µM) | 0 | 0 | 0 | 0 | 0 | 0 | 0 | 0 | 0 | 0 | 0 | 0 | 0 | 0 | 0 | 0 | 0 | 0 | 0 | 0 |
| CC/C=C\C/C=C\C/C=C\CCCCCCCC(=O)O [α-Linolenic acid] (10 µM) | 0 | 0 | 0 | 0 | 0 | 0 | 0 | 0 | 0 | 0 | 0 | 0 | 0 | 0 | 0 | 0 | 0 | 0 | 0 | 0 |
| CCn1c(-c2nonc2N)nc2cnc(Oc3cccc(NC(=O)c4ccc(OCCN5CCOCC5)cc4)c3)cc21 (10 µM) | 0 | 0 | 0 | 0 | 0 | 0 | 0 | 0 | 0 | 0 | 0 | 0 | 0 | 3 | 0 | 0 | 0 | 0 | 0 | 0 |
| Fc1ccc(-c2nc(-c3ccccc3F)[nH]c2-c2ccncc2)cc1 (2.5 µM) | 0 | 0 | 0 | 0 | 0 | 0 | 0 | 0 | 0 | 0 | 0 | 0 | 0 | 0 | 0 | 0 | 0 | 0 | 0 | 0 |
| COc1ccc(C(=O)Nc2sc3c(c2C(N)=O)CCCC3)cc1OC (10 µM) | 0 | 0 | 0 | 0 | 0 | 0 | 0 | 0 | 0 | 0 | 0 | 0 | 0 | 0 | 0 | 0 | 0 | 0 | 0 | 0 |
| Cn1cnc(-c2cc3nccc(Oc4ccc(NC(=S)NC(=O)Cc5ccccc5)cc4F)c3s2)c1 [MGCD-265 analog] (10 µM) | 0 | 0 | 0 | 4 | 3 | 0 | 3 | 0 | 0 | 0 | 3 | 4 | 0 | 4 | 4 | 3 | 3 | 1 | 0 | 0 |
| NC1(Cc2ccc(Cl)cc2)CCN(c2ncnc3[nH]ccc23)CC1 (10 µM) | 0 | 0 | 0 | 0 | 0 | 0 | 0 | 0 | 0 | 0 | 0 | 0 | 0 | 0 | 0 | 0 | 0 | 0 | 0 | 0 |
| COc1cc(N2CCN(C)CC2)ccc1Nc1ncc2c(n1)N(C1CCC1)C(=O)N(c1c(C)cccc1C)C2 (2.5 µM) | 0 | 0 | 0 | 0 | 0 | 0 | 0 | 0 | 0 | 0 | 0 | 0 | 0 | 0 | 0 | 0 | 0 | 0 | 0 | 0 |
| COc1ccc2[nH]cc(/C=C3\C(=O)Nc4ccc(NC(=O)CCN5CCCCC5)cc43)c2c1 (2.5 µM) | 0 | 0 | 0 | 0 | 0 | 0 | 0 | 0 | 0 | 0 | 0 | 0 | 0 | 0 | 0 | 0 | 0 | 0 | 0 | 0 |
| O=C(NCCCNc1nc(Nc2cccc(NC(=O)N3CCCC3)c2)ncc1I)c1cccs1 (2.5 µM) | 0 | 0 | 0 | 0 | 1 | 0 | 0 | 0 | 0 | 0 | 0 | 0 | 0 | 0 | 0 | 0 | 0 | 0 | 0 | 0 |
| Cc1cc(NC(=O)c2cccc(NC(=O)/C=C/CN(C)C)c2)ccc1Nc1nccc(-c2cccnc2)n1 (10 µM) | 0 | 0 | 0 | 0 | 1 | 0 | 0 | 0 | 0 | 0 | 0 | 0 | 0 | 0 | 0 | 0 | 0 | 0 | 0 | 1 |
| Cc1ccc2nc(NC(=O)CSc3nc4c(c(=O)n3-c3ccccc3)SCC4)sc2c1 (2 µM) | 0 | 0 | 0 | 0 | 0 | 0 | 0 | 0 | 0 | 0 | 0 | 0 | 0 | 0 | 0 | 0 | 0 | 0 | 0 | 0 |
| COc1cc(N2CCC(N3CCN(C)CC3)CC2)ccc1Nc1ncc(Cl)c(Nc2ccccc2P(C)(C)=O)n1 [Brigatinib] (2 µM) | 0 | 0 | 0 | 0 | 2 | 0 | 0 | 0 | 0 | 0 | 0 | 2 | 0 | 3 | 0 | 0 | 0 | 0 | 0 | 0 |
| NCc1ccc(Nc2ncc(F)c(Nc3ccccc3)n2)cc1 (10 µM) | 0 | 0 | 0 | 0 | 0 | 0 | 0 | 0 | 0 | 0 | 0 | 0 | 0 | 0 | 0 | 0 | 0 | 0 | 0 | 0 |
| CO[C@H]1C[C@@H]2CC[C@@H](C)[C@@](O)(O2)C(=O)C(=O)N2CCCC[C@H]2C(=O)O[C@H]([C@H](C)C[C@@H]2CC[C@@H](O)[C@H](OC)C2)CC(=O)[C@H](C)/C=C(\C)[C@@H](O)[C@@H](OC)C(=O)[C@H](C)C[C@H](C)/C=C/C=C/C=C/1C [Rapamycin] (10 µM) | 0 | 0 | 0 | 0 | 0 | 0 | 0 | 0 | 0 | 0 | 0 | 0 | 0 | 0 | 0 | 0 | 0 | 0 | 0 | 0 |
| CC(=O)N1CCN(c2cc(-c3cc(C(F)(F)F)c4c(N)ncnn34)ccc2C#N)C(=O)C1(C)C (10 µM) | 0 | 0 | 0 | 0 | 0 | 0 | 0 | 0 | 0 | 0 | 0 | 0 | 0 | 0 | 0 | 0 | 0 | 0 | 0 | 0 |
| CC(c1ccc(-c2cnc3c(-c4ccc(S(N)(=O)=O)c5ccccc45)cnn3c2)cc1)N1CCCC1 (stereo not given) (2.5 µM) | 0 | 0 | 0 | 0 | 0 | 0 | 0 | 0 | 0 | 0 | 0 | 0 | 0 | 0 | 0 | 0 | 0 | 0 | 0 | 0 |
| Cc1ccc(S(=O)(=O)/C=C/C#N)cc1 (10 µM) | 0 | 0 | 0 | 0 | 0 | 0 | 0 | 0 | 0 | 0 | 0 | 0 | 0 | 2 | 0 | 0 | 0 | 0 | 0 | 0 |
| COc1ccc([C@@H]2CC(=O)c3c(O)cc(O)cc3O2)cc1O [Hesperetin] (10 µM) | 0 | 0 | 0 | 0 | 0 | 0 | 0 | 0 | 0 | 0 | 0 | 0 | 0 | 0 | 0 | 0 | 0 | 0 | 0 | 0 |
| O=C(/C=C/c1ccc(O)c(O)c1)c1ccc(O[C@@H]2O[C@H](CO)[C@@H](O)[C@H](O)[C@H]2O)c(O)c1O [Marein] (10 µM) | 0 | 0 | 0 | 0 | 0 | 0 | 0 | 0 | 0 | 0 | 0 | 0 | 0 | 0 | 0 | 0 | 0 | 0 | 0 | 0 |
| CNCc1ccccc1-c1csc([C@@H](C)Nc2nc(C)nc3cc(OC)c(OC)cc23)c1 (2.5 µM) | 0 | 0 | 0 | 1 | 0 | 0 | 0 | 1 | 0 | 0 | 0 | 0 | 0 | 0 | 0 | 0 | 0 | 0 | 2 | 1 |

2 entries from above, with bars between the fields:
SMILES | number of time points (EGFR_L861Q) | number of time points (EGFR_T790M) | number of time points (EPHA2) | number of time points (ERBB3) | number of time points [1] | number of time points (ERN1) | number of time points (FGFR1) | number of time points (FGFR2) | number of time points (FGFR3) | number of time points (FGR) | number of time points (FLT3) | number of time points (FYN) | number of time points (GSK3A) | number of time points (HER2) | number of time points (INSRR) | number of time points (IRAK3) | number of time points (JAK1) | number of time points (LCK) | number of time points (LIMK1) | number of time points (LIMK2)
O=C(NCCCNc1nc(Nc2cccc(NC(=O)N3CCCC3)c2)ncc1I)c1cccs1 (2.5 µM) | 0 | 0 | 0 | 0 | 1 | 0 | 0 | 0 | 0 | 0 | 0 | 0 | 0 | 0 | 0 | 0 | 0 | 0 | 0 | 0
Cc1cc(NC(=O)c2cccc(NC(=O)/C=C/CN(C)C)c2)ccc1Nc1nccc(-c2cccnc2)n1 (10 µM) | 0 | 0 | 0 | 0 | 1 | 0 | 0 | 0 | 0 | 0 | 0 | 0 | 0 | 0 | 0 | 0 | 0 | 0 | 0 | 1

Reference: the supplement of paper PMC12823440, “Inhibitors supercharge kinase turnover through native proteolytic circuits” (Nature, 2025)
